Data as given in PubChem BioAssay AID1259405 (NCATS, 2018)

Screen: 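Mouse-designed siRNAs used to find CHO productivity engineering targets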 (primary screen)
System: Chinese hamster CHO-K1 ovary cells with stable secreted eGFP expression
Reagents: single siRNA against mouse genes, 0.8 pmol siRNA per well (2 µl of 400 nM stock)
Timing: 3 days
Read-out: 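Per-well intracellular GFP measured by laser scanning cytometry, plus viability from ATP luminescence, each relative to plate median of non-targeting control wells, in %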
Reading the numbers: GFP, % of control: higher = more GFP per well, higher productivity
Hit rule: 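a knock-down is called active if GFP reaches 120% or more of non-targeting control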
In all, the deposit lists about 50,000 reagents; below is an unselected part. Over the whole deposit, about 4,000 (8%) got an active call. 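Mouse siRNA library applied to hamster cells; one well for each siRNA.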 Reagents against one gene are numbered here. Further read-outs or replicates are left out here.

GFP, % of control, by target and reagent
Mgat4c: #1 67.8 inactive; #2 30.6 inactive; #3 74.7 inactive
Phf12: #1 126 active; #2 107 inactive; #3 202 active
Thbs1: #1 110 inactive; #2 73.8 inactive
Rft1: #1 62.7 inactive; #2 59.6 inactive; #3 77 inactive
Mkrn3: #1 63.5 inactive; #2 93.7 inactive; #3 77 inactive
Rnf43: #1 102 inactive; #2 108 inactive; #3 112 inactive
Cd28: #1 117 inactive; #2 55.7 inactive; #3 83.7 inactive
Chst3: #1 89.6 inactive; #2 107 inactive; #3 108 inactive
Cyp2a5: #1 107 inactive; #2 52.9 inactive; #3 87 inactive
Slc22a12: #1 111 inactive; #2 144 active; #3 140 active
Tmem170: #1 87.9 inactive; #2 65.6 inactive; #3 89.9 inactive
B3galt5: #1 130 active; #2 106 inactive; #3 101 inactive
Smad2: #1 84.5 inactive; #2 65.8 inactive; #3 79.7 inactive
Ezr: #1 93.2 inactive; #2 77.9 inactive
Ugt1a6a: #1 94.5 inactive; #2 74.7 inactive; #3 70.8 inactive
Mrpl20: #1 41.7 inactive; #2 95.9 inactive; #3 88.6 inactive
Skint3: #1 61.3 inactive; #2 85.3 inactive; #3 65.5 inactive
Tent2: #1 69.9 inactive; #2 80.4 inactive; #3 76.3 inactive
Penk: #1 64.2 inactive; #2 70.2 inactive; #3 67.3 inactive
Chchd7: #1 87.6 inactive; #2 29.6 inactive; #3 80.1 inactive
Matn2: #1 82.3 inactive; #2 64.2 inactive
Galnt14: #1 94.3 inactive; #2 103 inactive; #3 103 inactive
Or9k2b: #1 45.1 inactive; #2 86.1 inactive; #3 69.7 inactive
Atg101: #1 84.3 inactive; #2 27.2 inactive; #3 79.1 inactive
Dct: #1 52 inactive; #2 61.8 inactive; #3 73.3 inactive
Wdr46: #1 90.9 inactive; #2 82.9 inactive
Hmces: #1 84.2 inactive; #2 89.9 inactive; #3 89.1 inactive
Or52ae7: #1 74.7 inactive; #2 89.1 inactive; #3 74.1 inactive
Mesp2: #1 66.8 inactive; #2 124 active; #3 105 inactive
Tas2r144: #1 75.9 inactive; #2 50.8 inactive; #3 69.3 inactive

13 entries from above, set out differently:
Dct #1
- GFP, % of control: 52
- Outcome: inactive

Dct #2
- GFP, % of control: 61.8
- Outcome: inactive

Dct #3
- GFP, % of control: 73.3
- Outcome: inactive

Wdr46 #1
- GFP, % of control: 90.9
- Outcome: inactive

Wdr46 #2
- GFP, % of control: 82.9
- Outcome: inactive

Hmces #1
- GFP, % of control: 84.2
- Outcome: inactive

Hmces #2
- GFP, % of control: 89.9
- Outcome: inactive

Hmces #3
- GFP, % of control: 89.1
- Outcome: inactive

Or52ae7 #1
- GFP, % of control: 74.7
- Outcome: inactive

Or52ae7 #2
- GFP, % of control: 89.1
- Outcome: inactive

Or52ae7 #3
- GFP, % of control: 74.1
- Outcome: inactive

Mesp2 #1
- GFP, % of control: 66.8
- Outcome: inactive

Mesp2 #2
- GFP, % of control: 124
- Outcome: active
